In the supplement of paper PMC10849652:
This is one part of the list.

Sequences of proteins named here, by UniProt entry; tags and fusion partners are left off. A change or cut given only in a name is not applied to a line headed by its entry.
UniProt Q9NP81: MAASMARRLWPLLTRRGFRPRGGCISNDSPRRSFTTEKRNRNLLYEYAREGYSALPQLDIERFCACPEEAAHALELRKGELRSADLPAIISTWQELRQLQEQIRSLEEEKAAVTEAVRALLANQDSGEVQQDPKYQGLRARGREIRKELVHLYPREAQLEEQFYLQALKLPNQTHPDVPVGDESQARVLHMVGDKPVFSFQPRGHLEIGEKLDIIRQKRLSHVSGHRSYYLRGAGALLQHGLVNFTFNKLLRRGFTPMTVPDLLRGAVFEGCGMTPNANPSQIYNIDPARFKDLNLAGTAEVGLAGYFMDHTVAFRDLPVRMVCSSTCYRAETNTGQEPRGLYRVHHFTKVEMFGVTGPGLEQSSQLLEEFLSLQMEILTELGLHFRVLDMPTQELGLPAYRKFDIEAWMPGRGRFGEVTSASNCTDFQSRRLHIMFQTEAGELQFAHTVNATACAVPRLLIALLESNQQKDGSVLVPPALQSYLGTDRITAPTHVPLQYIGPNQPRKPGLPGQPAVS

Experiments:
Test in all cases: log2 fold change, soluble protein after heating vs DMSO (PISA); higher = thermal stabilisation; K562 cells, 10 uM, 30 min; active = over 0.2 and 3.5 SD of the protein, either way, in both replicates (recomputed)
defactinib = compound: CNC(=O)c1ccc(Nc2ncc(C(F)(F)F)c(NCc3nccnc3N(C)S(C)(=O)=O)n2)cc1 [defactinib]
Procedure, shortened: (§1)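 Soluble protein was defined as the supernatant after 21,000xg for 90 min. It came from K562 cells at 2×10^6 cells/mL given 10 μM compound for 30 min, heated in aliquots for 3 min across 48°C-58°C, pooled, and extracted in PBS with 0.5% NP-40 at 4°C, and was quantified by TMTpro 16plex LC-MS/MS with equalised channel sums. Thermal stability against control samples, from duplicates, is reported as log2 fold change.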

rucaparib = compound: CNCc1ccc(-c2[nH]c3cc(F)cc4c3c2CCNC4=O)cc1 [rucaparib]
Procedure, shortened: as §1

[1] = compound: CNc1nc(-c2ccc3c(N)n[nH]c3c2)cc(N2C[C@@H](C(=O)NC3CCCCC3)CC[C@H]2C)n1
Procedure, shortened: as §1

encorafenib = compound: COC(=O)N[C@@H](C)CNc1nccc(-c2cn(C(C)C)nc2-c2cc(Cl)cc(NS(C)(=O)=O)c2F)n1 [encorafenib]
Procedure, shortened: as §1

[2] = compound: COC(=O)[C@H](CCSC)NC(=O)C1=C(C=C(C=C1)NC[C@H](CS)N)C2=CC=CC=C2
Procedure, shortened: as §1

[3] = compound: COC1=CC=C(C=C1)CN2C=CC3=C2C=C(C=C3)C(=O)NO
Procedure, shortened: as §1

filanesib = compound: CON(C)C(=O)N1N=C(c2cc(F)ccc2F)S[C@@]1(CCCN)c1ccccc1 [filanesib]
Procedure, shortened: as §1

zotarolimus = compound: CO[C@H]1C[C@@H]2CC[C@@H](C)[C@@](O)(O2)C(=O)C(=O)N2CCCC[C@H]2C(=O)O[C@H]([C@H](C)C[C@@H]2CC[C@H](n3cnnn3)[C@H](OC)C2)CC(=O)[C@H](C)/C=C(\C)[C@@H](O)[C@@H](OC)C(=O)[C@H](C)C[C@H](C)/C=C/C=C/C=C/1C [zotarolimus]
Procedure, shortened: as §1

idasanutlin = compound: COc1cc(C(=O)O)ccc1NC(=O)[C@@H]1N[C@@H](CC(C)(C)C)[C@](C#N)(c2ccc(Cl)cc2F)[C@H]1c1cccc(Cl)c1F [idasanutlin]
Procedure, shortened: as §1

alisertib = compound: COc1cc(Nc2ncc3c(n2)-c2ccc(Cl)cc2C(c2c(F)cccc2OC)=NC3)ccc1C(=O)O [alisertib]
Procedure, shortened: as §1

[4] = compound: COc1cc2nc(-c3cc(F)ccc3O)nc(N[C@@H]3CNC[C@H]3C(C)(C)O)c2cc1OC
Procedure, shortened: as §1

gefitinib = compound: COc1cc2ncnc(Nc3ccc(F)c(Cl)c3)c2cc1OCCCN1CCOCC1 [gefitinib]
Procedure, shortened: as §1

[5] = compound: COc1cccc2cc(-c3nc([C@H]4CC[C@H](C(=O)O)CC4)n4ncnc(N)c34)[nH]c12
Procedure, shortened: as §1

lapatinib = compound: CS(=O)(=O)CCNCc1ccc(-c2ccc3ncnc(Nc4ccc(OCc5cccc(F)c5)c(Cl)c4)c3c2)o1 [lapatinib]
Procedure, shortened: as §1

pictilisib = compound: CS(=O)(=O)N1CCN(Cc2cc3nc(-c4cccc5[nH]ncc45)nc(N4CCOCC4)c3s2)CC1 [pictilisib]
Procedure, shortened: as §1

[6] = compound: CS(=O)(=O)c1ccc(-c2cnc(N)c(C(=O)Nc3ccccc3)n2)cc1
Procedure, shortened: as §1

crizotinib = compound: C[C@@H](Oc1cc(-c2cnn(C3CCNCC3)c2)cnc1N)c1c(Cl)ccc(F)c1Cl [crizotinib]
Procedure, shortened: as §1

[7] = compound: C[C@@H]1COCCN1C2=NC(=NC(=C2)C3(CC3)S(=O)(=O)C)C4=C5C=CNC5=CC=C4
Procedure, shortened: as §1

[8] = compound: C[C@H](C1=CC=C(C=C1)C(=O)NC2=C3C=CNC3=NC=C2)N
Procedure, shortened: as §1

duvelisib = compound: C[C@H](Nc1ncnc2nc[nH]c12)c1cc2cccc(Cl)c2c(=O)n1-c1ccccc1 [duvelisib]
Procedure, shortened: as §1

gandotinib = compound: Cc1cc(Nc2cc(CN3CCOCC3)c3nc(C)c(Cc4ccc(Cl)cc4F)n3n2)n[nH]1 [gandotinib]
Procedure, shortened: as §1

tozasertib = compound: Cc1cc(Nc2cc(N3CCN(C)CC3)nc(Sc3ccc(NC(=O)C4CC4)cc3)n2)n[nH]1 [tozasertib]
Procedure, shortened: as §1

[9] = compound: Cc1cc(SCc2sc(-c3ccc(C(F)(F)F)cc3)nc2C)ccc1OCC(=O)O
Procedure, shortened: as §1

doramapimod = compound: Cc1ccc(-n2nc(C(C)(C)C)cc2NC(=O)Nc2ccc(OCCN3CCOCC3)c3ccccc23)cc1 [doramapimod]
Procedure, shortened: as §1

ispinesib = compound: Cc1ccc(C(=O)N(CCCN)[C@@H](c2nc3cc(Cl)ccc3c(=O)n2Cc2ccccc2)C(C)C)cc1 [ispinesib]
Procedure, shortened: as §1

bafetinib = compound: Cc1ccc(NC(=O)c2ccc(CN3CC[C@H](N(C)C)C3)c(C(F)(F)F)c2)cc1Nc1nccc(-c2cncnc2)n1 [bafetinib]
Procedure, shortened: as §1

[10] = compound: Cc1cccc(CC(=O)N2CCc3c2ccc(-c2cn(C)c4ncnc(N)c24)c3F)n1
Procedure, shortened: as §1

nilotinib = compound: Cc1cn(-c2cc(NC(=O)c3ccc(C)c(Nc4nccc(-c5cccnc5)n4)c3)cc(C(F)(F)F)c2)cn1 [nilotinib]
Procedure, shortened: as §1

[11] = compound: Cc1nc(Nc2n[nH]c3c2CN(C(=O)N[C@H](CN(C)C)c2ccccc2)C3(C)C)c2sccc2n1
Procedure, shortened: as §1

dasatinib = compound: Cc1nc(Nc2ncc(C(=O)Nc3c(C)cccc3Cl)s2)cc(N2CCN(CCO)CC2)n1 [dasatinib]
Procedure, shortened: as §1

[12] = compound: Cc1ncc(-c2ccnc(Nc3ccc(S(C)(=O)=O)cc3)n2)n1C(C)C
Procedure, shortened: as §1

[13] = compound: Cc1sc2c(c1C)C(c1ccc(Cl)cc1)=N[C@@H](CC(=O)OC(C)(C)C)c1nnc(C)n1-2
Procedure, shortened: as §1

[14] = compound: Cn1cc(-c2ccc3c(c2)CCN3C(=O)Cc2cccc(C(F)(F)F)c2)c2c(N)ncnc21
Procedure, shortened: as §1

[15] = compound: Cn1cc(-c2ccc3nnc(C(F)(F)c4ccc5ncccc5c4)n3n2)cn1
Procedure, shortened: as §1

tipifarnib = compound: Cn1cncc1[C@@](N)(c1ccc(Cl)cc1)c1ccc2c(c1)c(-c1cccc(Cl)c1)cc(=O)n2C [tipifarnib]
Procedure, shortened: as §1

mubritinib = compound: FC(F)(F)c1ccc(/C=C/c2nc(COc3ccc(CCCCn4ccnn4)cc3)co2)cc1 [mubritinib]
Procedure, shortened: as §1

[16] = compound: NC(=O)Nc1cc(-c2cccc(F)c2)sc1C(=O)N[C@H]1CCCNC1
Procedure, shortened: as §1

[17] = compound: NC(=O)c1cnc(N[C@@H]2CCCC[C@@H]2N)nc1Nc1cccc(-n2nccn2)c1
Procedure, shortened: as §1

[18] = compound: NC1(c2ccc(-c3nc4ccn5c(=O)[nH]nc5c4cc3-c3ccccc3)cc2)CCC1
Procedure, shortened: as §1

[19] = compound: NCC(=O)Nc1ccc(-n2nc(C(F)(F)F)cc2-c2ccc3c(ccc4ccccc43)c2)cc1
Procedure, shortened: as §1

entinostat = compound: Nc1ccccc1NC(=O)c1ccc(CNC(=O)OCc2cccnc2)cc1 [entinostat]
Procedure, shortened: as §1

vorinostat = compound: O=C(CCCCCCC(=O)Nc1ccccc1)NO [vorinostat]
Procedure, shortened: as §1

citarinostat = compound: O=C(CCCCCCNC(=O)c1cnc(N(c2ccccc2)c2ccccc2Cl)nc1)NO [citarinostat]
Procedure, shortened: as §1

silmitasertib = compound: O=C(O)c1ccc2c(c1)nc(Nc1cccc(Cl)c1)c1ccncc12 [silmitasertib]
Procedure, shortened: as §1

[20] = compound: O=C1NC(=O)C(c2cnc3ccccn23)=C1c1cn2c3c(cc(F)cc13)CN(C(=O)N1CCCCC1)CC2
Procedure, shortened: as §1

[21] = compound: c1cc(OCCN2CCCCC2)cc(-c2n[nH]c3ccc(-c4nnc[nH]4)cc23)c1
Procedure, shortened: as §1

[22] = compound: c1ccc([C@@H]2C[C@H]2NC2CCNCC2)cc1
Procedure, shortened: as §1

entospletinib = compound: c1cn2cc(-c3ccc4cn[nH]c4c3)nc(Nc3ccc(N4CCOCC4)cc3)c2n1 [entospletinib]
Procedure, shortened: as §1

Measured: log2 fold change

SARS2 (UniProt Q9NP81)
inactive: defactinib -0.015 | rucaparib -0.035 | [1] -0.014 | encorafenib -0.007 | [2] 0.03 | [3] 0.002 | filanesib -0.07 | zotarolimus -0.013 | idasanutlin -0.012 | alisertib 0.023 | [4] -0.027 | gefitinib -0.002 | [5] -0.004 | lapatinib 0 | pictilisib -0.006 | [6] 0.038 | crizotinib -0.014 | [7] 0.009 | [8] -0.051 | duvelisib 0.03 | gandotinib -0.019 | tozasertib 0.011 | [9] -0.003 | doramapimod -0.034 | ispinesib -0.022 | bafetinib -0.018 | [10] 0.022 | nilotinib -0.012 | [11] -0.003 | dasatinib 0 | [12] 0 | [13] 0.004 | [14] 0.022 | [15] 0.015 | tipifarnib 0.016 | mubritinib 0.008 | [16] 0.009 | [17] 0.017 | [18] -0.041 | [19] -0.025 | entinostat -0.012 | vorinostat -0.005 | citarinostat -0.01 | silmitasertib -0.043 | [20] -0.008 | [21] -0.009 | [22] -0.003 | entospletinib -0.037
